Assay results reported in PMC11282728.
Results are given in words; binding and its absence hold for the method and conditions named. In cells and extracts the contact can be indirect. Some results given as binding are weak or reduced against the parent protein; the word gives no strength.

Protein sequences, listed by entry. Tags and fused reporters are not part of them. Residues count along the entry.
UniProt P27008: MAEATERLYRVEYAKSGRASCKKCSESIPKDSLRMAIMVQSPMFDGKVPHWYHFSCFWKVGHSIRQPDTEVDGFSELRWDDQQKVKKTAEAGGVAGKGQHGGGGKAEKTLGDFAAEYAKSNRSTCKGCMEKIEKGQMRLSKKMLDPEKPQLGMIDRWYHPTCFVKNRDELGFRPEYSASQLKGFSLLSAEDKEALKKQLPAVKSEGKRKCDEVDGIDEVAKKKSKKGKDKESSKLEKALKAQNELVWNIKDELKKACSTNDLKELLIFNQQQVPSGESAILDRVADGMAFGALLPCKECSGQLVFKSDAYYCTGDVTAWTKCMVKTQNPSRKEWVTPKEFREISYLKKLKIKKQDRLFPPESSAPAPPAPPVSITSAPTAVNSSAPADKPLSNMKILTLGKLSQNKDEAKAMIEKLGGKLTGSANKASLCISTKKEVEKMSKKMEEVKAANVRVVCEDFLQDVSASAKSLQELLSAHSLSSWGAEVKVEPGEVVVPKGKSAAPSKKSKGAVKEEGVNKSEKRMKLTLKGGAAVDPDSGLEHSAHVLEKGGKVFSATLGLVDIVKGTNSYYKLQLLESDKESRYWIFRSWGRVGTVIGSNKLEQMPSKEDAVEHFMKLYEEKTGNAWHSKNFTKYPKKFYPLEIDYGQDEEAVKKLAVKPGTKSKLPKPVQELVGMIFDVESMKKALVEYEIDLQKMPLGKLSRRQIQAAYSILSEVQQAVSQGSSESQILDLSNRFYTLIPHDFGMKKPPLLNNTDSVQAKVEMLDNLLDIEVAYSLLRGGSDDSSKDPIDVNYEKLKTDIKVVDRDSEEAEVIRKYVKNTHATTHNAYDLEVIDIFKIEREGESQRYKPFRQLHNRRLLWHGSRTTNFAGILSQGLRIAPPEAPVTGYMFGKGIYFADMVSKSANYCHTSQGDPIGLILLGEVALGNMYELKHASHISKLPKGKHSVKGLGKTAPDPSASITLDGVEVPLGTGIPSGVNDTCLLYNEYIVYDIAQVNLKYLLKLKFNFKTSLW
UniProt Q9JM53, residues 102-612: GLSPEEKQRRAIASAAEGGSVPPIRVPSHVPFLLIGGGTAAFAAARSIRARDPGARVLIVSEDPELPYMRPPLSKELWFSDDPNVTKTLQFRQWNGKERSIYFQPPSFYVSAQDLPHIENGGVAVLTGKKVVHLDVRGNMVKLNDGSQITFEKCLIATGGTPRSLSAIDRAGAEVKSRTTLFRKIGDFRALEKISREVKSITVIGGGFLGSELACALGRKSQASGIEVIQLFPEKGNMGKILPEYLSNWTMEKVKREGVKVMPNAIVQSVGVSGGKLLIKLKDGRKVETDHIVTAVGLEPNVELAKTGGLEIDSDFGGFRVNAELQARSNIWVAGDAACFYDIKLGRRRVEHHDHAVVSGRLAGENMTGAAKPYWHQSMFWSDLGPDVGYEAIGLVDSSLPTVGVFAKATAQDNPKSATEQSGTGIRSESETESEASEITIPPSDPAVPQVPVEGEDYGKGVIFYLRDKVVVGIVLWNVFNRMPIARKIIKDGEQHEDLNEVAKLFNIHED

Target: poly (ADP-ribose) polymerase 1 (PARP1) (rat (endogenous in neonatal rat cardiomyocytes)) (UniProt P27008)
Assay: co-IP; cardiomyocytes lysed in RIPA buffer; 2 h at room temperature with anti-PARP1 (ab227244) or anti-IgG (ab182016), then Protein A/G beads 1 h; washed, Western blot

apoptosis-inducing factor mitochondria-associated 1 (AIFM1) (from UniProt Q9JM53 102-612)
binding: binds
